# Assay results published in article PMC11601812.
# Chains of the proteins cited; added tags and fusions are not shown. Lines headed by an entry give the natural chain unless they say otherwise; changes in a name come on top. Residues count along the entry.
# UniProt P06401, residues 165-933: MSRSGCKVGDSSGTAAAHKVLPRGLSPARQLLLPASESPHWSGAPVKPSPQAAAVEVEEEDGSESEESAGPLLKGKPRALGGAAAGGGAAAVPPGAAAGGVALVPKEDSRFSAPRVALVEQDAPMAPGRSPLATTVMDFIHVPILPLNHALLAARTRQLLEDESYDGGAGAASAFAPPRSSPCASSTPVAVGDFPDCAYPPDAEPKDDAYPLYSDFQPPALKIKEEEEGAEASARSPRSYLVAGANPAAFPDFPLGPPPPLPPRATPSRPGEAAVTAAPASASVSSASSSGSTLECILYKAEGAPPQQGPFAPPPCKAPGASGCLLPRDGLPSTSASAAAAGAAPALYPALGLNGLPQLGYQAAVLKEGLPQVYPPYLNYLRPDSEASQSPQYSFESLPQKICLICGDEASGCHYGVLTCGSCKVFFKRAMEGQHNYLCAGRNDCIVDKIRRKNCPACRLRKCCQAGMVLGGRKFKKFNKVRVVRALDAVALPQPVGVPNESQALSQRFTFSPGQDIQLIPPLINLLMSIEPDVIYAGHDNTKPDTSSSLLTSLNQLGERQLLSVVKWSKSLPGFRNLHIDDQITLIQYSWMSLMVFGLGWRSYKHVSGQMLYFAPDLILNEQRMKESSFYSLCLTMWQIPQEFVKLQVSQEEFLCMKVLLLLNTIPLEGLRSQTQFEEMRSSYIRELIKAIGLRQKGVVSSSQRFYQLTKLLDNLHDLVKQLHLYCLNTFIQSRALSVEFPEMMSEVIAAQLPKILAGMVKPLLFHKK
# No constants are given. Whether binding was seen depends on the method and setting.
# Columns and labels:
# [1] = biological target: progesterone receptor isoform A (PR-A), full-length, Strep II tagged (human) (UniProt P06401); test: SEC-MALS; each protein alone, PR bound to agonist R5020, no DNA; Superose 6 Increase; 20 mM Hepes, 50 mM NaCl, 5% glycerol, 1 mM TCEP, with or without 1 M urea, pH 7.5; about 20-100 ug injected; both purified
# [2] = biological target: progesterone receptor isoform A (PR-A), full-length, Strep II tagged (human) (UniProt P06401); test: SEC-MALS; PR bound to antagonist RU486, no DNA; Superose 6 Increase; 20 mM Hepes, 50 mM NaCl, 5% glycerol, 1 mM TCEP, with or without 1 M urea, pH 7.5; both purified
substance,measurement,setting,value
"progesterone receptor isoform A (PR-A), full-length, Strep II tagged (from UniProt P06401-2 1-769)",binding,[1],no binding (condition: in the absence of DNA)
same,binding,[2],no binding (condition: in the absence of DNA)
